No constants are given. Whether binding was seen depends on the method and setting. Some entries that bind do so weakly or less than the wild type. Where a sequence is shown, tags or fusion partners need not be part of it.
T1: extracellular region of FGFR4 fused to the Fc fragment of human IgG1 (human) (UniProt P22455)
T1 sequence (chain, N-glycosylated (five putative N-glycosylation sites)): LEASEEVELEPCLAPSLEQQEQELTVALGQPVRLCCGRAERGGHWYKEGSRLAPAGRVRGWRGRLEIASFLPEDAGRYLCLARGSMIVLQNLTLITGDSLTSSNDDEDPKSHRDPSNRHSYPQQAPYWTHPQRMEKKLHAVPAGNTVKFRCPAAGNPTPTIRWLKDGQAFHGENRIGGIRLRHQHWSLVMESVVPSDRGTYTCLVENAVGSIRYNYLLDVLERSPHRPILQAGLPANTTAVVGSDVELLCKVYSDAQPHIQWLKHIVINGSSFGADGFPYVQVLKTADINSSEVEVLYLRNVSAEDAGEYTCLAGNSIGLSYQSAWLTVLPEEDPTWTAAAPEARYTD

B1: galectin-2 (protein, UniProt P05162 1-132)
chain: MTGELEVKNMDMKPGSTLKITGSIADGTDGFVINLGQGTDKLNLHFNPRFSESTIVCNSLDGSNWGQEQREDHLCFSPGSEVKFTVTFESDKFKVKLPDGHELTFPNRLGHSHLSYLSVRGGFNMSSFKLKE
B2: galectin-14 (protein, UniProt Q8TCE9 1-139)
chain: MSSLPVPYTLPVSLPVGSCVIITGTPILTFVKDPQLEVNFYTGMDEDSDIAFQFRLHFGHPAIMNSCVFGIWRYEEKCYYLPFEDGKPFELCIYVRHKEYKVMVNGQRIYNFAHRFPPASVKMLQVFRDISLTRVLISD

Target: T1, extracellular region of FGFR4 fused to the Fc fragment of human IgG1 (human)
Assay: BLI; Octet RED K2; FGFR-Fc variants or Fc (25 μg/mL) immobilised in PBS on Protein-A sensors in a pairwise manner; galectins in solution (50 μg/mL); both purified

| Binder | binding |
| --- | --- |
| B1 | binds |
| B2 | binds |

From paper PMC10070233
